Assay results taken from doi:10.1101/787473.
Where two headings read alike, the source gives them in different places. No constants are given. Whether binding was seen depends on the method and setting. In cells and extracts the contact can be indirect. Some results given as binding are weak or reduced against the parent protein; the word gives no strength.

T1: GR10, synthetic poly-glycine-arginine 10-mer dipeptide repeat protein with C-terminal lysine and cysteine
T1 sequence (peptide): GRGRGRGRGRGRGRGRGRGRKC

T2: PR10, synthetic poly-proline-arginine 10-mer dipeptide repeat protein with C-terminal lysine and cysteine
T2 sequence (peptide): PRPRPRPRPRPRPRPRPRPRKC

B1: Matrin-3, endogenous in HEK cell lysate (protein, UniProt P43243 1-847)
chain: MSKSFQQSSLSRDSQGHGRDLSAAGIGLLAAATQSLSMPASLGRMNQGTARLASLMNLGMSSSLNQQGAHSALSSASTSSHNLQSIFNIGSRGPLPLSSQHRGDADQASNILASFGLSARDLDELSRYPEDKITPENLPQILLQLKRRRTEEGPTLSYGRDGRSATREPPYRVPRDDWEEKRHFRRDSFDDRGPSLNPVLDYDHGSRSQESGYYDRMDYEDDRLRDGERCRDDSFFGETSHNYHKFDSEYERMGRGPGPLQERSLFEKKRGAPPSSNIEDFHGLLPKGYPHLCSICDLPVHSNKEWSQHINGASHSRRCQLLLEIYPEWNPDNDTGHTMGDPFMLQQSTNPAPGILGPPPPSFHLGGPAVGPRGNLGAGNGNLQGPRHMQKGRVETSRVVHIMDFQRGKNLRYQLLQLVEPFGVISNHLILNKINEAFIEMATTEDAQAAVDYYTTTPALVFGKPVRVHLSQKYKRIKKPEGKPDQKFDQKQELGRVIHLSNLPHSGYSDSAVLKLAEPYGKIKNYILMRMKSQAFIEMETREDAMAMVDHCLKKALWFQGRCVKVDLSEKYKKLVLRIPNRGIDLLKKDKSRKRSYSPDGKESPSDKKSKTDGSQKTESSTEGKEQEEKSGEDGEKDTKDDQTEQEPNMLLESEDELLVDEEEAAALLESGSSVGDETDLANLGDVASDGKKEPSDKAVKKDGSASAAAKKKLKKVDKIEELDQENEAALENGIKNEENTEPGAESSENADDPNKDTSENADGQSDENKDDYTIPDEYRIGPYQPNVPVGIDYVIPKTGFYCKLCSLFYTNEEVAKNTHCSSLPHYQKLKKFLNKLAEERRQKKET
B2: nucleoporin 54, endogenous in HEK cell lysate (protein, UniProt Q7Z3B4 1-507)
chain: MAFNFGAPSGTSGTAAATAAPAGGFGGFGTTSTTAGSAFSFSAPTNTGTTGLFGGTQNKGFGFGTGFGTTTGTSTGLGTGLGTGLGFGGFNTQQQQQTTLGGLFSQPTQAPTQSNQLINTASALSAPTLLGDERDAILAKWNQLQAFWGTGKGYFNNNIPPVEFTQENPFCRFKAVGYSCMPSNKDEDGLVVLVFNKKETEIRSQQQQLVESLHKVLGGNQTLTVNVEGTKTLPDDQTEVVIYVVERSPNGTSRRVPATTLYAHFEQANIKTQLQQLGVTLSMTRTELSPAQIKQLLQNPPAGVDPIIWEQAKVDNPDSEKLIPVPMVGFKELLRRLKVQDQMTKQHQTRLDIISEDISELQKNQTTSVAKIAQYKRKLMDLSHRTLQVLIKQEIQRKSGYAIQADEEQLRVQLDTIQGELNAPTQFKGRLNELMSQIRMQNHFGAVRSEERYYIDADLLREIKQHLKQQQEGLSHLISIIKDDLEDIKLVEHGLNETIHIRGGVFS
B3: nucleoporin 133, endogenous in HEK cell lysate (protein, UniProt Q8WUM0 1-1156)
chain: MFPAAPSPRTPGTGSRRGPLAGLGPGSTPRTASRKGLPLGSAVSSPVLFSPVGRRSSLSSRGTPTRMFPHHSITESVNYDVKTFGSSLPVKVMEALTLAEVDDQLTINIDEGGWACLVCKEKLIIWKIALSPITKLSVCKELQLPPSDFHWSADLVALSYSSPSGEAHSTQAVAVMVATREGSIRYWPSLAGEDTYTEAFVDSGGDKTYSFLTAVQGGSFILSSSGSQLIRLIPESSGKIHQHILPQGQGMLSGIGRKVSSLFGILSPSSDLTLSSVLWDRERSSFYSLTSSNISKWELDDSSEKHAYSWDINRALKENITDAIWGSESNYEAIKEGVNIRYLDLKQNCDGLVILAAAWHSADNPCLIYYSLITIEDNGCQMSDAVTVEVTQYNPPFQSEDLILCQLTVPNFSNQTAYLYNESAVYVCSTGTGKFSLPQEKIVFNAQGDSVLGAGACGGVPIIFSRNSGLVSITSRENVSILAEDLEGSLASSVAGPNSESMIFETTTKNETIAQEDKIKLLKAAFLQYCRKDLGHAQMVVDELFSSHSDLDSDSELDRAVTQISVDLMDDYPASDPRWAESVPEEAPGFSNTSLIILHQLEDKMKAHSFLMDFIHQVGLFGRLGSFPVRGTPMATRLLLCEHAEKLSAAIVLKNHHSRLSDLVNTAILIALNKREYEIPSNLTPADVFFREVSQVDTICECLLEHEEQVLRDAPMDSIEWAEVVINVNNILKDMLQAASHYRQNRNSLYRREESLEKEPEYVPWTATSGPGGIRTVIIRQHEIVLKVAYPQADSNLRNIVTEQLVALIDCFLDGYVSQLKSVDKSSNRERYDNLEMEYLQKRSDLLSPLLSLGQYLWAASLAEKYCDFDILVQMCEQTDNQSRLQRYMTQFADQNFSDFLFRWYLEKGKRGKLLSQPISQHGQLANFLQAHEHLSWLHEINSQELEKAHATLLGLANMETRYFAKKKTLLGLSKLAALASDFSEDMLQEKIEEMAEQERFLLHQETLPEQLLAEKQLNLSAMPVLTAPQLIGLYICEENRRANEYDFKKALDLLEYIDEEEDININDLKLEILCKALQRDNWSSSDGKDDPIEVSKDSIFVKILQKLLKDGIQLSEYLPEVKDLLQADQLGSLKSNPYFEFVLKANYEYYVQGQI

Key:
Test in all cases: co-sedimentation
[1] = target: T1, GR10, synthetic poly-glycine-arginine 10-mer dipeptide repeat protein with C-terminal lysine and cysteine
[2] = target: T2, PR10, synthetic poly-proline-arginine 10-mer dipeptide repeat protein with C-terminal lysine and cysteine
[3] = target: T1, GR10, synthetic poly-glycine-arginine 10-mer dipeptide repeat protein with C-terminal lysine and cysteine; remark: listed apart in the source
[4] = target: T2, PR10, synthetic poly-proline-arginine 10-mer dipeptide repeat protein with C-terminal lysine and cysteine; remark: listed apart in the source

Row | Binder | binding [1] | binding [2] | binding [3] | binding [4]
1 | B1 | binds | binds | binds | binds
2 | B2 | binds | binds | – | –
3 | B3 | binds | binds | – | –
